Experimental data reported in the supplement of paper PMC10849652.
The list shows a part of the results.

The chains behind the UniProt entries cited, without tags or fusion partners. Where a name states a change or a piece, a line headed by the entry shows the natural chain unless it says otherwise.
UniProt Q5I7T1: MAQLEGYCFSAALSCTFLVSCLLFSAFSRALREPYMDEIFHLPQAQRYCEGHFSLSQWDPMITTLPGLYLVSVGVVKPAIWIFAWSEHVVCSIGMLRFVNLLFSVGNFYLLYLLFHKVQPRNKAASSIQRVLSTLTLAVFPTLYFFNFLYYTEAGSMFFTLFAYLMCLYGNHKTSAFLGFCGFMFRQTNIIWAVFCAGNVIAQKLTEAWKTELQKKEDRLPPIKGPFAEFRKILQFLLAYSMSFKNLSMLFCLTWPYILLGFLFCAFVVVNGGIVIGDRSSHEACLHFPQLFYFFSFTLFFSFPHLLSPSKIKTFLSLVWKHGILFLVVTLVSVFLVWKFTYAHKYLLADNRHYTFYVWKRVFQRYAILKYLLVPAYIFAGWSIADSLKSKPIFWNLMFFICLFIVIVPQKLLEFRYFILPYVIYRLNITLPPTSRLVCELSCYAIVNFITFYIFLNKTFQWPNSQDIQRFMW
UniProt Q92688: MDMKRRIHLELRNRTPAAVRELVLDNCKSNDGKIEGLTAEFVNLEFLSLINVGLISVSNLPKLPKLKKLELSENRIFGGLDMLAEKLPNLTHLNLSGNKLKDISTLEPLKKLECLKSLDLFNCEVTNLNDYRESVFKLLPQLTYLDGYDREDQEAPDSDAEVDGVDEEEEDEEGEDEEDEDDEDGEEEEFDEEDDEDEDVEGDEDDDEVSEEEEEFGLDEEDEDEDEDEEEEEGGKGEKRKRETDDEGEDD
UniProt P09525: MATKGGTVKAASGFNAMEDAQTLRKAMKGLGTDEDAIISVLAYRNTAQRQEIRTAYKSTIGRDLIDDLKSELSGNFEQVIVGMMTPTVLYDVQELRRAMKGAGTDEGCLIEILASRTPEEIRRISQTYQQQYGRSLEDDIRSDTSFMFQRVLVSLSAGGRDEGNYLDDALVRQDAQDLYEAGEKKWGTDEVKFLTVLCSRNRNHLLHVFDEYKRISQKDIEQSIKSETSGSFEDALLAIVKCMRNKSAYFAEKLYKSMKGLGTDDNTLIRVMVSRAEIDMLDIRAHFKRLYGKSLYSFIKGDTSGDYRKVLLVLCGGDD
UniProt Q9BV10: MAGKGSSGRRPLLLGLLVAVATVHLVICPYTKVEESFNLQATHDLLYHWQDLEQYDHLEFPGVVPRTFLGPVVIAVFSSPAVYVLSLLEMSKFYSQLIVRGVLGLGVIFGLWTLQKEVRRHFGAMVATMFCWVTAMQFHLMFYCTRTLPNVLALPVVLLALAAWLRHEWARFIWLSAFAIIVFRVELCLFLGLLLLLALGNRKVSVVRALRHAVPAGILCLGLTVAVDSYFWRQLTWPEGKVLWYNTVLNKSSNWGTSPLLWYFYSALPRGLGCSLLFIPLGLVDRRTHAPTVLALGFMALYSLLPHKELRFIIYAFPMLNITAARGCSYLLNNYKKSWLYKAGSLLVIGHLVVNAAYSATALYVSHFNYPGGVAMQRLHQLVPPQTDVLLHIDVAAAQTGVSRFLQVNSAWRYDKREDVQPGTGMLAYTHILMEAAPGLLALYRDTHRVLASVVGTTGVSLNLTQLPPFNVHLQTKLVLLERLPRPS
UniProt Q9ULJ7: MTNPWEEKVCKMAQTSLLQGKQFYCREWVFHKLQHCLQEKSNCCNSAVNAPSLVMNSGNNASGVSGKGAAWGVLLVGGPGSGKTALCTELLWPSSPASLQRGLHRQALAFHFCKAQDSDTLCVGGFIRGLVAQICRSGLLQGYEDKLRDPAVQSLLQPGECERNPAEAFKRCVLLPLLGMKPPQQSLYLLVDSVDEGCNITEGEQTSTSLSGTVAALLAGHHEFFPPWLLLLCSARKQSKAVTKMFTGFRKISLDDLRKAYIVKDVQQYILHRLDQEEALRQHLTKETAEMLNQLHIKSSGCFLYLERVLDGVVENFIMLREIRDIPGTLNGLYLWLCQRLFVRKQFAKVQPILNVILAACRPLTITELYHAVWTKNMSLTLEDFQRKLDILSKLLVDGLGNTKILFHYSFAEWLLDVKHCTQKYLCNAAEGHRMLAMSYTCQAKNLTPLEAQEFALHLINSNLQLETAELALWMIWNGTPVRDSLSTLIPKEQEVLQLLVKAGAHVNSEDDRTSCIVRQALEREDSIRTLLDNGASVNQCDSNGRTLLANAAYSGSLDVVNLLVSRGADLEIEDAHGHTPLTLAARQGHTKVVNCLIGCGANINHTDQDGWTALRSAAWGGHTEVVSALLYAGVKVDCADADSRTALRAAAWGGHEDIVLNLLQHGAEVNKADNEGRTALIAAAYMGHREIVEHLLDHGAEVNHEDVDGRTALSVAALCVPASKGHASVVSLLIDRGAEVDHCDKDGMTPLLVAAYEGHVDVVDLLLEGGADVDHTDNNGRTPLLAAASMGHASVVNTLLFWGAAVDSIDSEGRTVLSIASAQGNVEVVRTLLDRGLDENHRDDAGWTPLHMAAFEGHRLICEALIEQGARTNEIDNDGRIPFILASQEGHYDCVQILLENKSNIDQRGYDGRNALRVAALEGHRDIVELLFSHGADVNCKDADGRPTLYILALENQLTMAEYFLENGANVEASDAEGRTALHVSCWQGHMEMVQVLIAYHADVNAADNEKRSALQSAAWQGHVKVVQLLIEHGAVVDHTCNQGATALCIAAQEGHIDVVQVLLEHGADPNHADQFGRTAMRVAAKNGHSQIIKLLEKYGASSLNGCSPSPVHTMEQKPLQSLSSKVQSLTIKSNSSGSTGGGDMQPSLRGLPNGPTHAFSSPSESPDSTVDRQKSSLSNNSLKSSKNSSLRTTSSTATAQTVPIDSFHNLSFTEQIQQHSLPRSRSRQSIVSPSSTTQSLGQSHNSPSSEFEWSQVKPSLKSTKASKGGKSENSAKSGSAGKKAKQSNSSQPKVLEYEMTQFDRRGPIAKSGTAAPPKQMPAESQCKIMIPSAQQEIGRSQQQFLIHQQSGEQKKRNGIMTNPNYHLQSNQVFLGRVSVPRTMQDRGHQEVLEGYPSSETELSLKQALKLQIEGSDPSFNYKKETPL
UniProt Q63HQ0: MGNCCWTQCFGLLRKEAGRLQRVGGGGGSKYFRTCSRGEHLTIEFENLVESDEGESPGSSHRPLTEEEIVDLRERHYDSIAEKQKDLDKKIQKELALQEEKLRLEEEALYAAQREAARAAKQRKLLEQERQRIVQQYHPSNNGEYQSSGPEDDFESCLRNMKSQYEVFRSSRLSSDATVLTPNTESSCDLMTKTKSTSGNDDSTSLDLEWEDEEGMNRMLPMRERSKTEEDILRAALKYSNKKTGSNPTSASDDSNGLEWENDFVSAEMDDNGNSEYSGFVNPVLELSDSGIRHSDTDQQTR
UniProt P53677: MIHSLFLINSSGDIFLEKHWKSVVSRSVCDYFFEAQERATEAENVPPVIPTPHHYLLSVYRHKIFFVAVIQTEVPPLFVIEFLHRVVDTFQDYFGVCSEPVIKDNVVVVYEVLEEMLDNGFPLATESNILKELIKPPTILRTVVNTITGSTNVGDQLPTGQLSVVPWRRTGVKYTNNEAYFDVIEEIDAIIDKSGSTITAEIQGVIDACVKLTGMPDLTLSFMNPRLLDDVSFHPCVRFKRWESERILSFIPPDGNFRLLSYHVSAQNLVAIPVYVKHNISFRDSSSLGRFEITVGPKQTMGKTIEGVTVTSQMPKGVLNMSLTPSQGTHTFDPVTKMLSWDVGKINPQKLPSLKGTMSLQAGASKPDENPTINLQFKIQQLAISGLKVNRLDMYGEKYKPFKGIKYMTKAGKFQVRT
UniProt P13196: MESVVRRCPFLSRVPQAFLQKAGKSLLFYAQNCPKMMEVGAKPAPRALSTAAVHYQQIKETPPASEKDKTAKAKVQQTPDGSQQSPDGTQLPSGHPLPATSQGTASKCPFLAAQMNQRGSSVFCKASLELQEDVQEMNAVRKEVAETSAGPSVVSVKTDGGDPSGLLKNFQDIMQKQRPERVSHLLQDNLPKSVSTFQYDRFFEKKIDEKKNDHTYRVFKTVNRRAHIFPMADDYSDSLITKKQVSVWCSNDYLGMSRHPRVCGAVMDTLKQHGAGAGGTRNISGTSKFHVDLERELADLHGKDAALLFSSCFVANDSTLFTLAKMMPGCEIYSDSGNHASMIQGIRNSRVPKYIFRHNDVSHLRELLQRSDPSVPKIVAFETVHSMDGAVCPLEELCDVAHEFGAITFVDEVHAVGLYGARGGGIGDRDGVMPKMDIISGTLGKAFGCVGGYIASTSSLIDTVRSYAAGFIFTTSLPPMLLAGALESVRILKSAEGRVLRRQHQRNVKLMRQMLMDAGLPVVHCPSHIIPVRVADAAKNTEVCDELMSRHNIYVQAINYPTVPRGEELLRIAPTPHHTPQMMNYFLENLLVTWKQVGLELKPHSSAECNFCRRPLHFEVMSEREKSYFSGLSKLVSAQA
UniProt Q9UPS8: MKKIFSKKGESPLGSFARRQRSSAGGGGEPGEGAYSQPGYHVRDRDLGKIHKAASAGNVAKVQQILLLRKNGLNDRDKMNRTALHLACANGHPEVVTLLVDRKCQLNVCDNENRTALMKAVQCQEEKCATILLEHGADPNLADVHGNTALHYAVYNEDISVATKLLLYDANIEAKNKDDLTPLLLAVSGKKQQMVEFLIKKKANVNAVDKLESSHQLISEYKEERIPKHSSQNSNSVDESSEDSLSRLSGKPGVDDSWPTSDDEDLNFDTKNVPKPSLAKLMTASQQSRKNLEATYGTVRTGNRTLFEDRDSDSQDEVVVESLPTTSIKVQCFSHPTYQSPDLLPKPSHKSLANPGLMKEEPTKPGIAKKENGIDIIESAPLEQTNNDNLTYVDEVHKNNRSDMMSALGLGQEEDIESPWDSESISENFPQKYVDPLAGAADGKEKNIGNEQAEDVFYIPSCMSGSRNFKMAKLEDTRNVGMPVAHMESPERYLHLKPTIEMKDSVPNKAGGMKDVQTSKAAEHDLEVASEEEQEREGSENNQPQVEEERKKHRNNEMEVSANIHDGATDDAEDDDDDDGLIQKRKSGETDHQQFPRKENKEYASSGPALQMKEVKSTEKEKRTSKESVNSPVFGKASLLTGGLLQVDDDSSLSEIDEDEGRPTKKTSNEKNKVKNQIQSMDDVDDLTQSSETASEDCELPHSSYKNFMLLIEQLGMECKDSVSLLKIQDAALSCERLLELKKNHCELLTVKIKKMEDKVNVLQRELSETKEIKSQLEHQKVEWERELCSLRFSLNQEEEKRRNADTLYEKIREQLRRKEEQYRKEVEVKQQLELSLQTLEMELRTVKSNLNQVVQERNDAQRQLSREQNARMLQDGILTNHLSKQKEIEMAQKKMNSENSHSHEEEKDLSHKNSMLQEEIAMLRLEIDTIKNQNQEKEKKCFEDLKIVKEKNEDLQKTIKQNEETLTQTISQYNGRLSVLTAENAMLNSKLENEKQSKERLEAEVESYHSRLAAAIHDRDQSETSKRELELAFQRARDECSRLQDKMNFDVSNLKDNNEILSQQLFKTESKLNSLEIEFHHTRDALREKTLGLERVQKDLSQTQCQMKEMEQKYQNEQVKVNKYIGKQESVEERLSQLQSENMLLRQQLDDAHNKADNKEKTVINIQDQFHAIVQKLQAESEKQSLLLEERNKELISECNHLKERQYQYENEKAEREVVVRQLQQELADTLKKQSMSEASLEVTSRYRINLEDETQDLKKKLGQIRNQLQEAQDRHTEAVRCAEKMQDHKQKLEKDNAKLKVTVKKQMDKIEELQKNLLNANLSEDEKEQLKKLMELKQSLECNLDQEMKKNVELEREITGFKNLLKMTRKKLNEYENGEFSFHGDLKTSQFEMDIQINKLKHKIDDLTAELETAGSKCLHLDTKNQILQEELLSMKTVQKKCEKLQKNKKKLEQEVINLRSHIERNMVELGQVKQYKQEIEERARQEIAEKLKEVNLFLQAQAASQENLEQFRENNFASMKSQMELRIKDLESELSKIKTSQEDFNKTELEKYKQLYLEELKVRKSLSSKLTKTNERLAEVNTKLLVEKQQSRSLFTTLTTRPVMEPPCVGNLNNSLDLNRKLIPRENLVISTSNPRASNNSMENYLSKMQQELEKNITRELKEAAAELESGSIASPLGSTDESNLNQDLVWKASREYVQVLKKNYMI
UniProt P30838: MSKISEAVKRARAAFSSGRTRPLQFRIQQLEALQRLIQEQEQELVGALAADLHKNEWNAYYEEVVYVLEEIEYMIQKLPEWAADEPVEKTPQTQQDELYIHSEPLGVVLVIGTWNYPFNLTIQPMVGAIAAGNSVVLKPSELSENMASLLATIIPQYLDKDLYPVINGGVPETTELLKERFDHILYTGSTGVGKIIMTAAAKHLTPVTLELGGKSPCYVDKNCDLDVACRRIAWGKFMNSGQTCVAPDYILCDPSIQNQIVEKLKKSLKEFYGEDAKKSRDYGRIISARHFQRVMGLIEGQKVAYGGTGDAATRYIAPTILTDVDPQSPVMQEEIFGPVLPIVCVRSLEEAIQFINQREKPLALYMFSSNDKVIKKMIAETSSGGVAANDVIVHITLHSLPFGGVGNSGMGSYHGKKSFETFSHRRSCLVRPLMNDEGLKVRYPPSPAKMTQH

Key:
Experiment in all cases: log2 fold change, soluble protein after heating vs DMSO (PISA); higher = thermal stabilisation; K562 lysate, 10 uM; active = over 0.2 and 3.5 SD of the protein, either way, in both replicates (recomputed)
[1] = compound: CS(=O)(=O)CCNCc1ccc(-c2ccc3ncnc(Nc4ccc(OCc5cccc(F)c5)c(Cl)c4)c3c2)o1 [lapatinib]
Outline: (§1)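 Following dounce homogenisation of K562 pellets in PBS pH 7.4 with 1 mM MgCl2, crude extract at 1 mg/mL protein was incubated for 30 min with 10 μM compound. Aliquots were then heated for 3 min over 48°C-58°C and pooled, NP-40 was added to 0.5% at 4°C, and soluble protein was recovered as the supernatant at 21,000xg for 90 min. Channel-sum-equalised TMTpro 16plex LC-MS/MS quantified this protein. Each value, from duplicates, is a log-two fold change in thermal stability relative to solvent controls.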

[2] = compound: CS(=O)(=O)N1CCN(Cc2cc3nc(-c4cccc5[nH]ncc45)nc(N4CCOCC4)c3s2)CC1 [pictilisib]
Outline: as §1

[3] = compound: C[C@@H](Oc1cc(-c2cnn(C3CCNCC3)c2)cnc1N)c1c(Cl)ccc(F)c1Cl [crizotinib]
Outline: as §1

[4] = compound: C[C@H](C1=CC=C(C=C1)C(=O)NC2=C3C=CNC3=NC=C2)N
Outline: as §1

[5] = compound: C[C@H](Nc1ncnc2nc[nH]c12)c1cc2cccc(Cl)c2c(=O)n1-c1ccccc1 [duvelisib]
Outline: as §1

[6] = compound: Cc1cc(Nc2cc(CN3CCOCC3)c3nc(C)c(Cc4ccc(Cl)cc4F)n3n2)n[nH]1 [gandotinib]
Outline: as §1

[7] = compound: Cc1ccc(-n2nc(C(C)(C)C)cc2NC(=O)Nc2ccc(OCCN3CCOCC3)c3ccccc23)cc1 [doramapimod]
Outline: as §1

[8] = compound: Cc1ccc(NC(=O)c2ccc(CN3CC[C@H](N(C)C)C3)c(C(F)(F)F)c2)cc1Nc1nccc(-c2cncnc2)n1 [bafetinib]
Outline: as §1

[9] = compound: Cc1cccc(CC(=O)N2CCc3c2ccc(-c2cn(C)c4ncnc(N)c24)c3F)n1
Outline: as §1

[10] = compound: Cc1cn(-c2cc(NC(=O)c3ccc(C)c(Nc4nccc(-c5cccnc5)n4)c3)cc(C(F)(F)F)c2)cn1 [nilotinib]
Outline: as §1

[11] = compound: Cc1nc(Nc2n[nH]c3c2CN(C(=O)N[C@H](CN(C)C)c2ccccc2)C3(C)C)c2sccc2n1
Outline: as §1

[12] = compound: Cc1nc(Nc2ncc(C(=O)Nc3c(C)cccc3Cl)s2)cc(N2CCN(CCO)CC2)n1 [dasatinib]
Outline: as §1

[13] = compound: Cc1ncc(-c2ccnc(Nc3ccc(S(C)(=O)=O)cc3)n2)n1C(C)C
Outline: as §1

[14] = compound: Cn1cc(-c2ccc3c(c2)CCN3C(=O)Cc2cccc(C(F)(F)F)c2)c2c(N)ncnc21
Outline: as §1

[15] = compound: Cn1cc(CNCC2CCN(c3ncc(C(=O)NO)cn3)CC2)c2ccccc21 [quisinostat]
Outline: as §1

[16] = compound: Cn1cncc1[C@@](N)(c1ccc(Cl)cc1)c1ccc2c(c1)c(-c1cccc(Cl)c1)cc(=O)n2C [tipifarnib]
Outline: as §1

[17] = compound: NC(=O)Nc1cc(-c2cccc(F)c2)sc1C(=O)N[C@H]1CCCNC1
Outline: as §1

[18] = compound: NC(=O)c1cnc(N[C@@H]2CCCC[C@@H]2N)nc1Nc1cccc(-n2nccn2)c1
Outline: as §1

[19] = compound: NC1(c2ccc(-c3nc4ccn5c(=O)[nH]nc5c4cc3-c3ccccc3)cc2)CCC1
Outline: as §1

[20] = compound: Cc1cc(Nc2cc(N3CCN(C)CC3)nc(Sc3ccc(NC(=O)C4CC4)cc3)n2)n[nH]1 [tozasertib]
Outline: as §1

Target	log2 fold change [1]	log2 fold change [2]	log2 fold change [3]	log2 fold change [4]	log2 fold change [5]	log2 fold change [6]	log2 fold change [7]	log2 fold change [8]	log2 fold change [9]	log2 fold change [10]	log2 fold change [11]	log2 fold change [12]	log2 fold change [13]	log2 fold change [14]	log2 fold change [15]	log2 fold change [16]	log2 fold change [17]	log2 fold change [18]	log2 fold change [19]	log2 fold change [20]
ALG10B (UniProt Q5I7T1)	inactive: -0.014	inactive: -0.024	inactive: 0.053	inactive: -0.046	inactive: 0.014	inactive: -0.034	inactive: -0.055	inactive: -0.057	inactive: 0.175	inactive: -0.021	inactive: -0.093	inactive: -0.026	inactive: -0.001	inactive: 0.071	inactive: 0.001	inactive: -0.029	inactive: -0.028	inactive: 0.002	inactive: -0.012	
AP1S1 (UniProt P61966)	inactive: 0.015	inactive: 0.022	inactive: 0.066	inactive: 0.002	inactive: 0.008	inactive: -0.037	inactive: 0.019	inactive: 0.037	inactive: -0.021	inactive: 0.025	inactive: 0.024	inactive: 0.032	inactive: -0.015	inactive: 0.031	inactive: 0.153	inactive: 0.025	inactive: -0.049	inactive: 0.005	inactive: 0.026	inactive: 0.002
ANP32B (UniProt Q92688)	inactive: 0.042	inactive: 0.012	inactive: 0.006	inactive: -0.032	inactive: 0.017	inactive: 0.015	inactive: 0.031	inactive: 0.041	inactive: -0.008	inactive: -0.004	inactive: 0.025	inactive: 0.015	inactive: -0.018	inactive: -0.04	inactive: 0.02	inactive: -0.006	inactive: -0.017	inactive: -0.022	inactive: 0.001	inactive: 0.016
ANKS3 (UniProt Q6ZW76)	inactive: 0.101	inactive: 0.067	inactive: -0.099	inactive: -0.32	inactive: -0.076	inactive: -0.019	inactive: -0.017	inactive: -0.145	inactive: 0.128			inactive: -0.074		inactive: 0.23	inactive: -0.192		inactive: -0.018	inactive: 0.127		inactive: -0.048
ANXA4 (UniProt P09525)	inactive: -0.011	inactive: -0.009	inactive: -0.015	inactive: -0.018	inactive: -0.045	inactive: -0.005	inactive: 0.016	inactive: -0.021	inactive: 0.015	inactive: 0.007	inactive: -0.007	inactive: 0.074	inactive: -0.013	inactive: -0.016	inactive: 0.004	inactive: -0.009	inactive: 0.034	inactive: 0.008	inactive: -0.007	inactive: 0.064
ALS2 (UniProt Q96Q42)	inactive: 0.051	inactive: -0.077	inactive: -0.052	inactive: 0.014	inactive: 0.013	inactive: -0.032	inactive: -0.003	inactive: 0.077	inactive: 0.074	inactive: 0.099	inactive: 0.038	inactive: -0.007	inactive: 0.042	inactive: 0.022	inactive: -0.025	inactive: -0.111	inactive: 0.014	inactive: 0.041	inactive: 0.078	inactive: -0.093
ALG14 (UniProt Q96F25)	inactive: -0.084																	inactive: -0.073		
ALG12 (UniProt Q9BV10)	inactive: -0.038	inactive: 0.053		inactive: -0.016	inactive: 0.071	inactive: 0.07		inactive: -0.167	inactive: 0.097			inactive: 0.027		inactive: 0.045				inactive: -0.058	inactive: 0.11	inactive: -0.043
ANKRD50 (UniProt Q9ULJ7)	inactive: 0.019		inactive: -0.125	inactive: -0.105		inactive: 0.034	inactive: 0.069		inactive: 0.151	inactive: -0.037	inactive: -0.118		inactive: -0.057		inactive: -0.221	inactive: 0.166	inactive: 0.066	inactive: -0.013	inactive: -0.113	inactive: 0.114
AP1AR (UniProt Q63HQ0)	inactive: 0.021	inactive: 0.097	inactive: -0.049	inactive: 0.064		inactive: -0.046	inactive: 0.078	inactive: -0.091	inactive: 0.016	inactive: -0.105	inactive: 0.027		inactive: -0.034		inactive: -0.078	inactive: -0.047	inactive: -0.027	inactive: 0.013	inactive: -0.004	inactive: 0.092
AP3M2 (UniProt P53677)	inactive: -0.029	inactive: 0.1		inactive: 0.005	inactive: 0.014	inactive: 0.079		inactive: 0.077	inactive: 0.052			inactive: -0.24		inactive: 0.032				inactive: 0.032	inactive: 0.038	inactive: -0.168
ALAS1 (UniProt P13196)	inactive: -0.062	inactive: -0.016		inactive: -0.121	inactive: -0.369	inactive: 0.002		inactive: 0.103	inactive: 0.145	inactive: 0.164	inactive: 0.125	inactive: -0.295	inactive: 0.01	inactive: 0.231		inactive: -0.073		inactive: 0.199		inactive: 0.013
ANXA6 (UniProt E5RK69)	inactive: 0.019		inactive: -0.064		inactive: 0.031		inactive: -0.059			inactive: -0.076	inactive: 0.012	inactive: -0.048	inactive: 0.138	inactive: 0.184	inactive: -0.08	inactive: -0.063	inactive: 0.086	inactive: 0.059	inactive: -0.04	inactive: -0.266
ANKRD40 (UniProt Q6AI12)		inactive: -0.116	inactive: -0.022	inactive: -0.018	inactive: -0.171	inactive: -0.032	inactive: -0.027	inactive: -0.149	inactive: -0.067	inactive: -0.04	inactive: -0.115	inactive: 0.197	inactive: 0.071	inactive: -0.064	inactive: -0.161	inactive: 0.137	inactive: -0.001		inactive: -0.119	inactive: 0.249
ANKRD26 (UniProt Q9UPS8)	inactive: -0.212	inactive: -0.284	inactive: 0.44				inactive: 0.014	inactive: -0.065		inactive: -0.053	inactive: 0.265		inactive: 0.106		inactive: -0.128	inactive: -0.054	inactive: 0.347	inactive: 0.124	inactive: -0.039	inactive: 0.09
ALDOA (UniProt H3BPS8)	inactive: -0.132	inactive: -0.221		inactive: -0.082		inactive: 0.074		inactive: -0.344	inactive: -0.054	inactive: 0.151	inactive: -0.287		inactive: 0.11			inactive: 0.146		inactive: -0.15	inactive: 0.028	inactive: -0.1
ALDH3A1 (UniProt P30838)	inactive: -0.002		inactive: -0.134	inactive: -0.721	inactive: -0.061	inactive: 0.569	inactive: 0.015		inactive: 0.586			active: 1.35		inactive: -0.024	inactive: -0.381		inactive: -0.065	inactive: 0.055	inactive: -0.018	
ANKRD31 (UniProt Q8N7Z5)	inactive: 0.106	inactive: 0.077	inactive: 0.053		inactive: 0.008		inactive: 0.018	inactive: -0.145				inactive: -0.053		inactive: 0.089	inactive: -0.001		inactive: 0.068	inactive: 0.063		inactive: -0.12
AP1S2 (UniProt P56377)	inactive: -0.012	inactive: 0.057	inactive: -0.162	inactive: -0.282		inactive: 0.302	inactive: 0.162	inactive: -0.393	inactive: -0.139	inactive: -0.089	inactive: 0.077		inactive: -0.28		inactive: -0.094	inactive: -0.148	inactive: 0.086	inactive: 0.056	inactive: 0.114	inactive: -0.088

Some of the entries so far, in CSV form:
Target,log2 fold change [1],log2 fold change [2],log2 fold change [3],log2 fold change [4],log2 fold change [5],log2 fold change [6],log2 fold change [7],log2 fold change [8],log2 fold change [9],log2 fold change [10],log2 fold change [11],log2 fold change [12],log2 fold change [13],log2 fold change [14],log2 fold change [15],log2 fold change [16],log2 fold change [17],log2 fold change [18],log2 fold change [19],log2 fold change [20]
ANP32B (UniProt Q92688),inactive: 0.042,inactive: 0.012,inactive: 0.006,inactive: -0.032,inactive: 0.017,inactive: 0.015,inactive: 0.031,inactive: 0.041,inactive: -0.008,inactive: -0.004,inactive: 0.025,inactive: 0.015,inactive: -0.018,inactive: -0.04,inactive: 0.02,inactive: -0.006,inactive: -0.017,inactive: -0.022,inactive: 0.001,inactive: 0.016
ANKS3 (UniProt Q6ZW76),inactive: 0.101,inactive: 0.067,inactive: -0.099,inactive: -0.32,inactive: -0.076,inactive: -0.019,inactive: -0.017,inactive: -0.145,inactive: 0.128,,,inactive: -0.074,,inactive: 0.23,inactive: -0.192,,inactive: -0.018,inactive: 0.127,,inactive: -0.048
